Assay results from patent US5667825A (Kellogg Company, priority 1996, dated 1997).
Entries after “also recorded” stand apart in the source; their conditions may differ.

Columns and labels:
[1] = Brightness / vibrancy of color of fortified R-T-E cereal, trained panel; conditions: 0-10 point scale, no brightness to extremely bright; 17 trained panelists; white illumination; in R-T-E cereal
[2] = Metallic offtaste of fortified R-T-E cereal, trained panel; conditions: for Metallic Flavor: 0-10 point scale, no metallic taste to high metallic flavor, in R-T-E cereal

Compound | Brightness Value [1] | Metallic Flavor [2] | Metallic offtaste / taste, result in words ([2]; R-T-E cereal)
O=C([O-])/C=C/C(=O)[O-].[Fe+2] [Ferrous Fumarate, ferrous fumarate, reference compound] | 4.1 | 4.1 | 
O=C([O-])CN(CCN(CC(=O)[O-])CC(=O)[O-])CC(=O)[O-].[Fe+3].[Na+] [Ferric EDTA, sodium ferric ethylenediaminetetraacetic acid complex] | 5.4 | 2.3 | little metallic offtaste; also recorded: did not significantly alter the taste of the cereal product; also recorded: statistically significant lower level of metallic offtaste as compared to the ferrous fumarate and ferrous sulfate samples
ferrous sulfate [reference compound] | 2.7 | 4.7 | 
